Results: the RNAGym collection of RNA variant scans (doi:10.1126/science.aae0568)
Variants at the background level are over-represented here.

B1: tRNA (parent)
chain: GUUCCGUUGGCGUAAUGGUAACGCGUCUCCCUCCUAAGGAGAAGACUGCGGGUUCGAGUCCCGUACGGAACG

Variants of: B1
Assay: yeast fitness relative to wild type (ratio to wild type); higher = fitter; tRNA-Arg(CCU), competitive growth, 37 C, YPD
Procedure, shortened: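 Amplicons of the tRNA-Arg(CCU) gene were sequenced, 100-nucleotide paired-end, from the start population and from each end population of a pooled yeast competition. The competition, in six parallel replicates, lasted 24 hours in YPD at 37°C. Fitness relative to wild type was calculated from changes in genotype frequencies. Genotypes had to have ≥ 100 starting reads, and estimates < 0.5 were set to 0.5.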

Compared with U7G G52A C55U G67A, U7G U13C C31U is higher in yeast fitness: no more than 0.5 for the first, 0.903 for the second.

U7G U26A G48C and U8A A14C G18C A20C G25C U28A C60A A65U cannot be ordered by yeast fitness: no more than 0.5 for the first, no more than 0.5 for the second.

U8A A14G C31A G39A A57G and U8A A20G C33A A57G cannot be ordered by yeast fitness: no more than 0.5 for the first, no more than 0.5 for the second.

U8A A20G C49G A57C and U8A A20G U26C A40C G63A cannot be ordered by yeast fitness: no more than 0.5 for the first, no more than 0.5 for the second.

U8A A37G C55U G68A and U8A A42U U47C C55G cannot be ordered by yeast fitness: no more than 0.5 for the first, no more than 0.5 for the second.

U8A A43C C61G and U8A A43G U53C C55U cannot be ordered by yeast fitness: no more than 0.5 for the first, no more than 0.5 for the second.

U8A C11U A20C A70U and U8A C22G G25A C27A C33U cannot be ordered by yeast fitness: no more than 0.5 for the first, no more than 0.5 for the second.

U8A C22U C24A U26C G39C and U8A C27A G39C G51C cannot be ordered by yeast fitness: no more than 0.5 for the first, no more than 0.5 for the second.

U8A C29G C34A A36G A43C U53C and U8A C29U C31A G38A cannot be ordered by yeast fitness: no more than 0.5 for the first, no more than 0.5 for the second.

U8A C29U C33U A69G and U8A C30G G56C A57G A69C cannot be ordered by yeast fitness: no more than 0.5 for the first, no more than 0.5 for the second.

U8A C30U A36U C60U A65G and U8A C33G A42C C61A A65C cannot be ordered by yeast fitness: no more than 0.5 for the first, no more than 0.5 for the second.

U8A C33G A57C and U8A C33U G67A cannot be ordered by yeast fitness: no more than 0.5 for the first, no more than 0.5 for the second.

U8A C55U C62U and U8A G9A A40G A57C C62U cannot be ordered by yeast fitness: no more than 0.5 for the first, no more than 0.5 for the second.

Going from U8A G12A C33U A65U to U8A G12C U19G G25C C30U, the yeast fitness falls from 0.562 to no more than 0.5.

Going from U8A G18A C30A U32A U35G to U8A G18C C24A U32C A69U, the yeast fitness rises from no more than 0.5 to 0.565.

U8A G18C G25C and U8A G18C G41A cannot be ordered by yeast fitness: no more than 0.5 for the first, no more than 0.5 for the second.

U8A G23A C30G A65U A70U and U8A G23C C33A cannot be ordered by yeast fitness: no more than 0.5 for the first, no more than 0.5 for the second.

U8A G38C C61A and U8A G44A G67C cannot be ordered by yeast fitness: no more than 0.5 for the first, no more than 0.5 for the second.

U8A G44C U59A and U8A U16A U19C A57C cannot be ordered by yeast fitness: no more than 0.5 for the first, no more than 0.5 for the second.

U8A U16G C30U C33G A37C A43G and U8A U19A C29U A69U cannot be ordered by yeast fitness: no more than 0.5 for the first, no more than 0.5 for the second.

U8A U19C A21C G39C A42G A69U and U8A U32G A36C U47G cannot be ordered by yeast fitness: no more than 0.5 for the first, no more than 0.5 for the second.

U8A U47A G48A A65C and U8C A14C U19G C31G C33U A42G U64C A65G cannot be ordered by yeast fitness: no more than 0.5 for the first, no more than 0.5 for the second.

First: U8C A14U C22G C30U
Second: U8C A15C A21U
The yeast fitness of the first is higher: 0.581 for the first, no more than 0.5 for the second.

Compared with U8C A15C C33U U47G C49U G52C A70G, U8C A15U C22U A40C G48C U54C C62U is higher in yeast fitness: no more than 0.5 for the first, 0.557 for the second.

Going from U8C A21U to U8C A37C G39C, the yeast fitness falls from 0.802 to no more than 0.5.

U8C A42G C55U A65C and U8C C11G C29A C61U cannot be ordered by yeast fitness: no more than 0.5 for the first, no more than 0.5 for the second.

U8C C11G C30U A37C C46U and U8C C11G U13C A65G A69C cannot be ordered by yeast fitness: no more than 0.5 for the first, no more than 0.5 for the second.

First: U8C C22U
Second: U8C C24G C30G G39A
The yeast fitness of the first is higher: 0.768 for the first, no more than 0.5 for the second.

Compared with U8C C24U A45U, U8C C27G C34A C49U C60A is lower in yeast fitness: 0.608 for the first, no more than 0.5 for the second.

U8C C29A A36C U53C and U8C C30G C31G A57U A65U cannot be ordered by yeast fitness: no more than 0.5 for the first, no more than 0.5 for the second.

U8C C30G C31G U47C A65C and U8C C30G C31G U54C A65C cannot be ordered by yeast fitness: no more than 0.5 for the first, no more than 0.5 for the second.

Going from U8C C30U to U8C C33G G56C G67C, the yeast fitness falls from 0.935 to no more than 0.5.

U8C C46U C61G and U8C C49U C61A cannot be ordered by yeast fitness: no more than 0.5 for the first, no more than 0.5 for the second.

U8C C55G C60U and U8C G9A A42G G56A cannot be ordered by yeast fitness: no more than 0.5 for the first, no more than 0.5 for the second.

U8C G9A C29G and U8C G10A U19C C49U cannot be ordered by yeast fitness: no more than 0.5 for the first, no more than 0.5 for the second.

U8C G10C G23C U47G G52A C61A G67C and U8C G12A A42C C55U cannot be ordered by yeast fitness: no more than 0.5 for the first, no more than 0.5 for the second.

U8C G17A C60U and U8C G18C U32G G58A cannot be ordered by yeast fitness: no more than 0.5 for the first, no more than 0.5 for the second.

Compared with U8C G23C, U8C G25A C29G C31A is lower in yeast fitness: 0.642 for the first, no more than 0.5 for the second.

U8C G38C A70C and U8C G39A U53A cannot be ordered by yeast fitness: no more than 0.5 for the first, no more than 0.5 for the second.

Compared with U8C G44A, U8C G44A U53C is lower in yeast fitness: 1.01 for the first, no more than 0.5 for the second.

U8C G44C C49A and U8C G51C U59G cannot be ordered by yeast fitness: no more than 0.5 for the first, no more than 0.5 for the second.

Compared with U8C U13A C29A C31G, U8C U13G C22U is higher in yeast fitness: no more than 0.5 for the first, 0.529 for the second.
